Measured values as given in patent US12036195B2, “Co-crystals of NURR1-lbd in complex with a cyclopentenone prostaglandin and modulators of NURR1” (Nanyang Technological University, priority 2016, dated 2024).
Some of these results come from one statement about several compounds together.

Sequences of proteins named here, by UniProt entry; tags and fusion partners are left off.
UniProt Q06219, whole entry: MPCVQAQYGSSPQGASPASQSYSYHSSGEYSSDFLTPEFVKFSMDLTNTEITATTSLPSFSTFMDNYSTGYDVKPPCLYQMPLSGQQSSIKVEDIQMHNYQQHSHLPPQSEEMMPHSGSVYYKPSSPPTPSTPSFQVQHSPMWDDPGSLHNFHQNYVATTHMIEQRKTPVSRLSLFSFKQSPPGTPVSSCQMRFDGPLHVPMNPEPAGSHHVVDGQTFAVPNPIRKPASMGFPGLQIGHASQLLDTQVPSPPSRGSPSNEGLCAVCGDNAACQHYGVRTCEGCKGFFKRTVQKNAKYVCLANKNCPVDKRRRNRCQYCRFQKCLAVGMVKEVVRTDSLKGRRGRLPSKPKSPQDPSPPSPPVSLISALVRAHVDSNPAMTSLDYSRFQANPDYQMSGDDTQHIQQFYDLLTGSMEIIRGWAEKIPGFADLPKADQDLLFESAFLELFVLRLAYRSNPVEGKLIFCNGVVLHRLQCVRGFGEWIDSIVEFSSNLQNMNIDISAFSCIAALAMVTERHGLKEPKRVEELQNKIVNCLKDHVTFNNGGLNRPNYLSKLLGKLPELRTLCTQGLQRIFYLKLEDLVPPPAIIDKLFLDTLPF

Target: T1, Nurr1 (Mus musculus, UniProt Q06219)
T1 construct: pcDNA 3.1 Myc/His mouse full-length Nurr1; expressed in transfected cells; host or cells: HEK293T (human embryonic kidney)
Experiment: Nurr1-based luciferase reporter assay in HEK293T cells
Format: cell-based
Settings: NBRE luciferase reporter, versus DMSO vehicle

SMILES	Nurr1-dependent transcriptional activity
CCCCCC(O)/C=C/[C@H]1C=CC(=O)[C@@H]1CCCCCCC(=O)O (some centres unmarked) [PGA1, prostaglandin A1]	up to 2.5 fold
CCCCCC(O)/C=C/[C@H]1C=CC(=O)[C@@H]1C/C=C\CCCC(=O)O (some centres unmarked) [PGA2, prostaglandin A2]	up to 2.5 fold
